Measurements published in article doi:10.1101/2020.02.07.938712.
Changes are numbered by the printed parent chain. Results are given in words; binding and its absence hold for the method and conditions named. For some of these results: Binding can be weak; no strength is given. For some of these results: In cells and extracts the contact can be indirect. For some of these results: Sequences can lack the tags named with a protein.

Key:
[1] = target: T1, ARR5 (Arabidopsis thaliana) (UniProt Q9SB04); assay: two-hybrid
T1 sequence: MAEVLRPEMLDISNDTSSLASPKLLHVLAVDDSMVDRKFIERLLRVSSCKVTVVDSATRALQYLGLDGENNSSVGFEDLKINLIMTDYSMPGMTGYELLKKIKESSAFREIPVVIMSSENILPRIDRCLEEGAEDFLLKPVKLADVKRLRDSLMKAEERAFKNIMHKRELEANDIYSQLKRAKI

[2] = target: T2, ARR5^D87E (Arabidopsis thaliana) (UniProt Q9SB04); assay: two-hybrid
T2 sequence: T1 sequence with D87E

[3] = target: T3, ARR16^D93E (Arabidopsis thaliana) (UniProt Q9SHC2); assay: two-hybrid
T3 sequence: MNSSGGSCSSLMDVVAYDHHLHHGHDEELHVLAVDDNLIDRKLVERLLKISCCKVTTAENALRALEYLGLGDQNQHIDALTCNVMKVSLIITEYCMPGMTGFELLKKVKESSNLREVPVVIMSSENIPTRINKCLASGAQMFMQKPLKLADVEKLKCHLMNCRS

[4] = target: T4, ARR5^D87A (Arabidopsis thaliana) (UniProt Q9SB04); assay: two-hybrid
T4 sequence: T1 sequence with D87A

[5] = target: T5, ARR7^D85E (Arabidopsis thaliana) (UniProt Q9ZWS7); assay: two-hybrid
T5 sequence: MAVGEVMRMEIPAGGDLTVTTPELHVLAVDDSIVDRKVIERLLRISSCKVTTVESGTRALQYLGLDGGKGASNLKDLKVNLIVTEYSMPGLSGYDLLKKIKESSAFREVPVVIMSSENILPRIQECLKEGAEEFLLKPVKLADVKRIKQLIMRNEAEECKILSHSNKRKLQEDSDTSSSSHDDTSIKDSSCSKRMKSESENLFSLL

[6] = target: T6, ARR7 (Arabidopsis thaliana) (UniProt Q9ZWS7); assay: two-hybrid
T6 sequence: T5 sequence with E85D

[7] = target: T7, ARR7 D→A version (Arabidopsis thaliana) (UniProt Q9ZWS7); assay: two-hybrid
T7 sequence: T5 sequence with E85A

[8] = target: T8, cYFP:ARR5^D87E (Arabidopsis thaliana) (UniProt Q9SB04); assay: split reporter
T8 sequence: T1 sequence with D87E

Substance	binding [1]	binding [2]	binding [3]	binding [4]	binding [5]	binding [6]	binding [7]	binding [8]
EXO70D1 (from UniProt Q9C9E5)	binds	binds	binds weakly	binds	binds			
EXO70D2 (Arabidopsis thaliana)	no binding	binds	no binding	no binding	no binding	no binding	no binding	
EXO70D3 (Arabidopsis thaliana)		binds	no binding	no binding	no binding	no binding	no binding	
nYFP:EXO70D3 (Arabidopsis thaliana)								binds
